Taken from: PubChem BioAssay AID504784 (Drosophila RNAi Screening Center, 2011)
The deposit covers about 17,000 reagents; shown is an unselected part of those that have a named target and a result. 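Each column is one replicate's B-score; the combined score over replicates was not deposited, so single values may mislead.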 Not all columns of the deposit are shown. No sequences are given here.

Aim: 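Search for regulators of lipid droplet storage in oleate-fed fly cells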 (primary screen)
Cell system: Drosophila Kc167 embryonic cells
Reagent: long dsRNA against Drosophila genes, about 250 ng dsRNA per well
Duration: 4 days
Treatment: cells fed 400 µM oleic acid bound to BSA
Measurement: 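Microscope images give a droplet-to-nucleus area ratio, taken as log and converted to a screen-wide B-score; higher values mean greater lipid storage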
Scale: droplet/nuclear area B-score: higher = more stored lipid (overstorage)

neo (GeneID 43523) [DRSC16316]: droplet/nuclear area B-score, replicate 1 = -0.324
thoc6 (GeneID 39394) [DRSC10528]: droplet/nuclear area B-score, replicate 1 = 1.29
CG8841 (GeneID 36336) [DRSC07286]: droplet/nuclear area B-score, replicate 1 = 0.499
NLaz (GeneID 33324) [DRSC21521]: droplet/nuclear area B-score, replicate 1 = 0.766
mRpL2 (GeneID 39253) [DRSC10896]: droplet/nuclear area B-score, replicate 1 = 3.17
CG13843 (GeneID 42668) [DRSC14693]: droplet/nuclear area B-score, replicate 1 = -1.66
prc (GeneID 43930) [DRSC11385]: droplet/nuclear area B-score, replicate 1 = 0.07
CG12486 (retired record) (GeneID 39729) [DRSC09888]: droplet/nuclear area B-score, replicate 1 = -0.211
Fer1 (GeneID 2768661) [DRSC12507]: droplet/nuclear area B-score, replicate 1 = 1.27
Fer1 (GeneID 2768661) [DRSC12555]: droplet/nuclear area B-score, replicate 1 = -0.832
Ctu1 (GeneID 35920) [DRSC07069]: droplet/nuclear area B-score, replicate 1 = 0.086
Dif (GeneID 35045) [DRSC03316]: droplet/nuclear area B-score, replicate 1 = -0.78
Ythdc1 (GeneID 38420) [DRSC08141]: droplet/nuclear area B-score, replicate 1 = -0.22
RPA2 (GeneID 35364) [DRSC03184]: droplet/nuclear area B-score, replicate 1 = -0.0836
MetRS-m (GeneID 41733) [DRSC16443]: droplet/nuclear area B-score, replicate 1 = 0.0332
MetRS-m (GeneID 41733) [DRSC16515]: droplet/nuclear area B-score, replicate 1 = -2.02
CG10993 (GeneID 32344) [DRSC19362]: droplet/nuclear area B-score, replicate 1 = 0.812
Sdc (GeneID 37447) [DRSC04654]: droplet/nuclear area B-score, replicate 1 = -1.05
sna (GeneID 34908) [DRSC03613]: droplet/nuclear area B-score, replicate 1 = 0.241

Targets above whose target name begins with F or f:
Fer1 (GeneID 2768661) [DRSC12507]: droplet/nuclear area B-score, replicate 1 = 1.27
Fer1 (GeneID 2768661) [DRSC12555]: droplet/nuclear area B-score, replicate 1 = -0.832

Additional reagents:
CG30344 (GeneID 246552) [DRSC22510]: droplet/nuclear area B-score, replicate 1 = 0.00613
CG32772 (GeneID 31420) [DRSC18052]: droplet/nuclear area B-score, replicate 1 = 0.959
CG32772 (GeneID 31420) [DRSC18406]: droplet/nuclear area B-score, replicate 1 = 0.533
CG32772 (GeneID 31420) [DRSC22349]: droplet/nuclear area B-score, replicate 1 = -0.502
CG12655 (GeneID 33004) [DRSC20678]: droplet/nuclear area B-score, replicate 1 = 0.96
CG30389 (GeneID 37410) [DRSC04077]: droplet/nuclear area B-score, replicate 1 = -2.63
CG30389 (GeneID 37410) [DRSC04452]: droplet/nuclear area B-score, replicate 1 = 2.05
Coq9 (GeneID 246650) [DRSC22913]: droplet/nuclear area B-score, replicate 1 = 0.474
Rab3-GAP (GeneID 34626) [DRSC02001]: droplet/nuclear area B-score, replicate 1 = -1.26
ifc (GeneID 33836) [DRSC03549]: droplet/nuclear area B-score, replicate 1 = -0.652
Obp19a (GeneID 33037) [DRSC20487]: droplet/nuclear area B-score, replicate 1 = 0.181
tpr (GeneID 37486) [DRSC04468]: droplet/nuclear area B-score, replicate 1 = -0.383
CG9825 (GeneID 37624) [DRSC04569]: droplet/nuclear area B-score, replicate 1 = -0.517
Sp1 (GeneID 31913) [DRSC18717]: droplet/nuclear area B-score, replicate 1 = 1.58
CG6749 (GeneID 39144) [DRSC10704]: droplet/nuclear area B-score, replicate 1 = 4.03
CG13747 (GeneID 35907) [DRSC06418]: droplet/nuclear area B-score, replicate 1 = -0.00267
gl (GeneID 42210) [DRSC16957]: droplet/nuclear area B-score, replicate 1 = -0.211
hay (GeneID 39202) [DRSC11354]: droplet/nuclear area B-score, replicate 1 = 0.362
uncNacbeta (GeneID 33232) [DRSC00326]: droplet/nuclear area B-score, replicate 1 = -0.564
CG14856 (GeneID 41790) [DRSC14980]: droplet/nuclear area B-score, replicate 1 = -0.248
Gfrl (GeneID 3346162) [DRSC15197]: droplet/nuclear area B-score, replicate 1 = -0.0366
Gfrl (GeneID 3346162) [DRSC15199]: droplet/nuclear area B-score, replicate 1 = -1.4
Gfrl (GeneID 3346162) [DRSC15565]: droplet/nuclear area B-score, replicate 1 = -0.0152
Gfrl (GeneID 3346162) [DRSC15719]: droplet/nuclear area B-score, replicate 1 = -0.284
